Binding data for three molecules are collected here from paper PMC9589254, “Disrupting Cu trafficking as a potential therapy for cancer” (Frontiers in Molecular Biosciences, 2022).

Sequences of proteins named here, by UniProt entry; tags and fusion partners are left off.
UniProt P0A9G4: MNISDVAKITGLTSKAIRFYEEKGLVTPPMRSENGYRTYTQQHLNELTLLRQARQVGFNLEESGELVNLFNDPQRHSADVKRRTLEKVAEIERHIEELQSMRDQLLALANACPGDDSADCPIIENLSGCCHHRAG

No constants are given. Whether binding was seen depends on the method and setting.

In experiment [1] the target is T1, Atox1, fluorescently labelled (NT-647-NHS) (UniProt O00244).
T1 sequence (chain, red fluorescent NT-647-NHS on lysine residues): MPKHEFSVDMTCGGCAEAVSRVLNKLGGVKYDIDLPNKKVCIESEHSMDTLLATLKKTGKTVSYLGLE
Description: MST; without Cu(I); labelled protein 50 nM, peptide titrated; 25 mM Na2HPO4 pH 8, 150 mM NaCl, 0.05% Tween 20; 25 C; Monolith NT.115; both purified.

The target in experiment [2] is CueR, Escherichia coli copper receptor (Escherichia coli) (UniProt P0A9G4). Description: MST; CueR with KER or SMD peptide (Supplementary Figure S6); whether Cu(I) was present is not told; both purified.
Experiment [3] concerns the target T2, Atox1, fluorescently labelled (NT-647-NHS) (UniProt O00244 1-68, red fluorescent NT-647-NHS on lysine residues).
T2 sequence (looked up): T1 sequence (chain, red fluorescent NT-647-NHS on lysine residues)
The experiment in a line: MST; without Cu(I); labelled protein 50 nM, peptide titrated; 25 mM Na2HPO4 pH 8, 150 mM NaCl, 0.05% Tween 20; 25 C; Monolith NT.115; both purified.

Experiment [4] has as its target T2, Atox1, fluorescently labelled …. Description: MST; with Cu(I) 40 uM; labelled protein 50 nM, peptide titrated; 25 mM Na2HPO4 pH 8, 150 mM NaCl, 0.05% Tween 20; 25 C; Monolith NT.115; both purified.

B1: KER peptide (peptide)
peptide: KERTSR
notes: Made on rink-amide resin, which would give a C-terminal amide; also called KERTSR; source: synthetic peptide (Fmoc, rink-amide resin, reverse phase HPLC; 99.4% purity)
Turning to B1, the binding entry in experiment [1] is recorded as “no binding (condition: without Cu(I) (peptide up to 4 mM))”; in experiment [2] it was “no binding”.

B2: SMD peptide (peptide)
peptide: SMDMSIE
notes: Made on rink-amide resin, which would give a C-terminal amide; also called SMDMSIE; source: synthetic peptide (Fmoc, rink-amide resin, reverse phase HPLC; 95.1% purity)
For B2, the binding result is given as “no binding (condition: without Cu(I) (peptide up to 4 mM))” in experiment [1] and “no binding” in experiment [2].
For GAGAAA [control peptide (GAGAAA, termed Ala)], the binding result in experiment [3] and in experiment [4] was “no binding (tested: peptide up to 4 mM)” each time.
